Experimental data: PubChem BioAssay AID743454 (Peter MacCallum Cancer Centre, 2014)
Purpose: 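Genes whose loss kills vorinostat-resistant colon cancer cells under vorinostat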 (primary screen). Cells: human HCT116-VR colon cancer cells, selected for vorinostat resistance. Knock-down reagent: siRNA pool against human genes, 40 nM siRNA pool. Duration: vorinostat for 24 h, read-out about 72 h after transfection. Challenge: vorinostat at 2.5 µM final. Read-out: 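Two measures, CellTiter-Fluor viability and luminescent caspase 3/7 activity, each as fold change against same-plate mock wells, mean of duplicates, then screen-wide robust z-score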. Direction: viability robust z-score: higher = more viable cells than screen typical; caspase robust z-score: higher = more caspase 3/7 activity than screen typical. Rule for the call: 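a knock-down is a hit when classed RV1 or RV2 for lowered viability, or CA1 or CA2 for caspase activation; those lethal without drug were dropped; hits were retested singly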.
In all, the deposit lists about 18,000 reagents; shown is a random part of them. 450 of them (2.5%) count as active. 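Single biological run; no consistent viability z cut-off exists, so the class columns, not z-scores, define the calls.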 Reagent sequences are not shown.

How did the screen score ELMO3?
viability hit class: no change; caspase hit class: no change; viability robust z-score: -0.4; caspase robust z-score: -0.82; Call: inactive

With LIPK, what does the deposit list?
viability hit class: no change; caspase hit class: no change; viability robust z-score: -0.18; caspase robust z-score: -0.12; Call: inactive

With GLRA2, what does the deposit list?
viability hit class: no change; caspase hit class: no change; viability robust z-score: -0.72; caspase robust z-score: 4.72; Call: inactive

With UBAP2, what does the deposit list?
viability hit class: no change; caspase hit class: no change; viability robust z-score: 0.01; caspase robust z-score: 2.67; Call: inactive

How did the screen score F10?
viability hit class: no change; caspase hit class: no change; viability robust z-score: 0.72; caspase robust z-score: -0.45; Call: inactive

For NT5DC3, what does the deposit list?
viability hit class: no change; caspase hit class: no change; viability robust z-score: -1.19; caspase robust z-score: -1.06; Call: inactive

Which result is listed for OMG?
viability hit class: no change; caspase hit class: no change; viability robust z-score: -1.22; caspase robust z-score: 2.62; Call: inactive

What is on record for RPSA?
viability hit class: no change; caspase hit class: no change; viability robust z-score: -3.21; caspase robust z-score: -1.36; Call: inactive

Which result is listed for OR9Q1?
viability hit class: no change; caspase hit class: no change; viability robust z-score: 0.16; caspase robust z-score: 1.69; Call: inactive

With DNAJA4, how do the results read?
viability hit class: no change; caspase hit class: no change; viability robust z-score: 0.82; caspase robust z-score: -0.14; Call: inactive

With OR10G3, how do the results read?
viability hit class: no change; caspase hit class: no change; viability robust z-score: 0.6; caspase robust z-score: -0.02; Call: inactive

How did the screen score RSPH1?
viability hit class: no change; caspase hit class: no change; viability robust z-score: 0.96; caspase robust z-score: -0.59; Call: inactive

For GLI2, how do the results read?
viability hit class: no change; caspase hit class: no change; viability robust z-score: -0.41; caspase robust z-score: 1.84; Call: inactive

For BMP7, what does the deposit list?
viability hit class: no change; caspase hit class: no change; viability robust z-score: -1.19; caspase robust z-score: 0.22; Call: inactive

For SLC6A6, what was measured?
viability hit class: no change; caspase hit class: no change; viability robust z-score: 0.36; caspase robust z-score: -0.57; Call: inactive

For ATAD5, how do the results read?
viability hit class: no change; caspase hit class: no change; viability robust z-score: 0.03; caspase robust z-score: -0.19; Call: inactive

With IL17C, what was measured?
viability hit class: no change; caspase hit class: no change; viability robust z-score: 0.49; caspase robust z-score: 1.5; Call: inactive

What is on record for CT45A6?
viability hit class: no change; caspase hit class: no change; viability robust z-score: 0.08; caspase robust z-score: -0.54; Call: inactive

What is on record for RNF14?
viability hit class: no change; caspase hit class: no change; viability robust z-score: 0.36; caspase robust z-score: -0.3; Call: inactive

With ADAM11, how do the results read?
viability hit class: no change; caspase hit class: no change; viability robust z-score: 0.28; caspase robust z-score: 1.04; Call: inactive

For SENP8, what was measured?
viability hit class: no change; caspase hit class: no change; viability robust z-score: 1.13; caspase robust z-score: -0.93; Call: inactive
